Patent publication US20100179122A1 (priority 2005, published 2010)
Some results were stated once for a whole list of compounds, not compound by compound.

Tested on: T-lymphoid cells
Experiment: Cytotoxicity by microscopic examination of the cells in the spread assay
Format: cell-based
Details: at the compound's IC95 concentration

SMILES	cytotoxicity at IC95 concentration
O=C(Nc1ccccc1F)Nc1[nH]c2ccc(Cl)cc2c1S(=O)(=O)c1ccccc1 [Example 2, N-[5-chloro-3-(phenylsulfonyl)-1H-indol-2-yl]-N-(2-fluorophenyl)urea]	no cytotoxicity
O=C(Nc1[nH]c2ccc(Cl)cc2c1S(=O)(=O)c1ccccc1)C1CC1 [Example 3, N-[5-Chloro-3-(phenylsulfonyl)-1H-indol-2-yl]cyclopropanecarboxamide]	no cytotoxicity
CC(=O)OCC(=O)Nc1[nH]c2ccc(Cl)cc2c1S(=O)(=O)c1ccccc1 [Example 5, 2-{[5-chloro-3-(phenylsulfonyl)-1H-indol-2-yl]amino}-2-oxoethyl acetate]	no cytotoxicity
O=C(COCc1ccccc1)Nc1[nH]c2ccc(Cl)cc2c1S(=O)(=O)c1ccccc1 [Example 6, 2-(benzyloxy)-N-[5-chloro-3-(phenylsulfonyl)-1H-indol-2-yl]acetamide]	no cytotoxicity
CCC(=O)Nc1[nH]c2ccc(Cl)cc2c1S(=O)(=O)c1ccccc1 [Example 7, N-[5-chloro-3-(phenylsulfonyl)-1H-indol-2-yl]propanamide]	no cytotoxicity
O=C(CCOc1ccccc1)Nc1[nH]c2ccc(Cl)cc2c1S(=O)(=O)c1ccccc1 [Example 8, N-[5-chloro-3-(phenylsulfonyl)-1H-indol-2-yl]-3-phenoxypropanamide]	no cytotoxicity
O=C(Nc1[nH]c2ccc(Cl)cc2c1S(=O)(=O)c1ccccc1)C1CCC1 [Example 9, N-[5-chloro-3-(phenylsulfonyl)-1H-indol-2-yl]cyclobutanecarboxamide]	no cytotoxicity
O=C(Nc1[nH]c2ccc(Cl)cc2c1S(=O)(=O)c1ccccc1)C1Cc2ccccc2O1 (stereo not shown) [Example 10, N-[5-chloro-3-(phenylsulfonyl)-1H-indol-2-yl]-2,3-dihydro-1-benzofuran-2-carboxamide]	no cytotoxicity
O=C(Nc1[nH]c2ccc(Cl)cc2c1S(=O)(=O)c1ccccc1)C1COc2ccccc2O1 (stereo not shown) [Example 11, N-[5-chloro-3-(phenylsulfonyl)-1H-indol-2-yl]-2,3-dihydro-1,4-benzodioxine-2-carboxamide]	no cytotoxicity
O=C(CNC1CC1)Nc1[nH]c2ccc(Cl)cc2c1S(=O)(=O)c1ccccc1 [Example 12, N^1-[5-chloro-3-(phenylsulfonyl)-1H-indol-2-yl]-N^2-cyclopropylglycinamide]	no cytotoxicity
CC(C)C(=O)Nc1[nH]c2ccc(Cl)cc2c1S(=O)(=O)c1ccccc1 [Example 15, N-[5-chloro-3-(phenylsulfonyl)-1H-indol-2-yl]-2-methylpropanamide]	no cytotoxicity
O=C(Cc1ccc(F)cc1)Nc1[nH]c2ccc(Cl)cc2c1S(=O)(=O)c1ccccc1 [Example 16, N-[5-chloro-3-(phenylsulfonyl)-1H-indol-2-yl]-2-(4-fluorophenyl)acetamide]	no cytotoxicity
O=C(CN1CCCC(F)(F)C1)Nc1[nH]c2ccc(Cl)cc2c1S(=O)(=O)c1ccccc1 [Example 17, N-[5-chloro-3-(phenylsulfonyl)-1H-indol-2-yl]-2-(3,3-difluoropiperidin-1-yl)acetamide]	no cytotoxicity
O=C(Nc1[nH]c2ccc(Cl)cc2c1S(=O)(=O)c1ccccc1)c1ccc(F)cc1F [Example 18, N-[5-chloro-3-(phenylsulfonyl)-1H-indol-2-yl]-2,4-difluorobenzamide]	no cytotoxicity
O=C(Nc1[nH]c2ccc(Cl)cc2c1S(=O)(=O)c1ccccc1)c1ccccc1F [Example 19, N-[5-chloro-3-(phenylsulfonyl)-1H-indol-2-yl]-2-fluorobenzamide]	no cytotoxicity
O=C(Nc1[nH]c2ccc(Cl)cc2c1S(=O)(=O)c1ccccc1)c1ccncc1 [Example 20, N-[5-chloro-3-(phenylsulfonyl)-1H-indol-2-yl]isonicotinamide]	no cytotoxicity
CCNCC(=O)Nc1[nH]c2ccc(Cl)cc2c1S(=O)(=O)c1ccccc1 [Example 21, N^1-[5-chloro-3-(phenylsulfonyl)-1H-indol-2-yl]-N^2-ethylglycinamide]	no cytotoxicity
Cc1ccoc1C(=O)Nc1[nH]c2ccc(Cl)cc2c1S(=O)(=O)c1ccccc1 [Example 24, N-[5-chloro-3-(phenylsulfonyl)-1H-indol-2-yl]-3-methyl-2-furamide]	no cytotoxicity
O=C(Nc1[nH]c2ccc(Cl)cc2c1S(=O)(=O)c1ccccc1)c1cccc(F)c1 [Example 25, N-[5-chloro-3-(phenylsulfonyl)-1H-indol-2-yl]-3-fluorobenzamide]	no cytotoxicity
CCC(C)C(=O)Nc1[nH]c2ccc(Cl)cc2c1S(=O)(=O)c1ccccc1 (stereo not shown) [Example 26, N-[5-chloro-3-(phenylsulfonyl)-1H-indol-2-yl]-2-methylbutanamide]	no cytotoxicity
CCOC(=O)CNC(=O)Nc1[nH]c2ccc(Cl)cc2c1S(=O)(=O)c1ccccc1 [Example 27, ethyl N-({[5-chloro-3-(phenylsulfonyl)-1H-indol-2-yl]amino}carbonyl)glycinate]	no cytotoxicity
O=C(Nc1[nH]c2ccc(Cl)cc2c1S(=O)(=O)c1ccccc1)c1ccccc1 [Example 28, N-[5-chloro-3-(phenylsulfonyl)-1H-indol-2-yl]benzamide]	no cytotoxicity
O=C(Nc1cccc(F)c1)Nc1[nH]c2ccc(Cl)cc2c1S(=O)(=O)c1ccccc1 [Example 29, N-[5-chloro-3-(phenylsulfonyl)-1H-indol-2-yl]-N′-(3-fluorophenyl)urea]	no cytotoxicity
O=C(Nc1ccc(F)cc1)Nc1[nH]c2ccc(Cl)cc2c1S(=O)(=O)c1ccccc1 [Example 31, N-[5-chloro-3-(phenylsulfonyl)-1H-indol-2-yl]-N′-(4-fluorophenyl)urea]	no cytotoxicity
COCC(=O)Nc1[nH]c2ccc(Cl)cc2c1S(=O)(=O)c1ccccc1 [Example 34, N-[5-chloro-3-(phenylsulfonyl)-1H-indol-2-yl]-2-methoxyacetamide]	no cytotoxicity
O=C(Nc1ccccc1)Nc1[nH]c2ccc(Cl)cc2c1S(=O)(=O)c1ccccc1 [Example 35, N-[5-chloro-3-(phenylsulfonyl)-1H-indol-2-yl]-N′-phenylurea]	no cytotoxicity
CO[C@@](C(=O)Nc1[nH]c2ccc(Cl)cc2c1S(=O)(=O)c1ccccc1)(c1ccccc1)C(F)(F)F [Example 39, (2R)-N-[5-chloro-3-(phenylsulfonyl)-1H-indol-2-yl]-3,3,3-trifluoro-2-methoxy-2-phenylpropanamide]	no cytotoxicity
O=C(Nc1ccccc1C(F)(F)F)Nc1[nH]c2ccc(Cl)cc2c1S(=O)(=O)c1ccccc1 [Example 41, N-[5-chloro-3-(phenylsulfonyl)-1H-indol-2-yl]-N′-[2-(trifluoromethyl)phenyl]urea]	no cytotoxicity
